The text below walks through data of patent US20260022166A1.

These are yes or no findings as the source states them, for the method shown. Some binding calls cover weakened binding; strength is not graded here.

The target in experiment [1] is His-tagged human TSLP antigen (huTSLP-his) (human). The experiment is described as follows: ELISA.
Experiment [2] has the same target. The experiment can be described thus: ELISA, coated huTSLP-his.

B1: hu119-11 (antibody, human IgG1, kappa, V domains shown)
VH: EVQLVQSGAEVKKPGSSVKVSCKASGFTFSTYNMHWVKHAPGQGLEWIGAIYPGNGETSYNQKFKDRATLTVDKSTSTAYMELSSLRSEDTAVYYCAREDDYGEGYFDVWGQGTTVTVSS
VL: DIVMTQSPDSLAVSLGERATINCRASESVDNSGLSFMHWYQQKPGQPPKLLLYRASNLGSGIPDRFSGSGSGTDFTLTISSLQAEDVAVYYCQQINTDPLTFGQGTKLEIKR
Regarding B1, the binding entry in experiment [1] and in experiment [2] was “binds” each time.

B2: hu119-12 (antibody, human IgG1, kappa, V domains shown)
VH: EVQLVQSGAEVKKPGSSVKVSCKASGFTFSTYNMHWVKHAPGQGLEWIGAIYPGNGETSYNQKFKDRATLTVDKSTSTAYMELSSLRSEDTAVYYCAREDDYGEGYFDVWGQGTTVTVSS
VL: DIVMTQSPDSLAVSLGERATINCRASESVDNSGLSFMHWYQQKPGQPPKLLLYRASNLGSGIPDRFSGSGSGTDFTLTISSLQAEDVAVYYCQQINTDPLTFGQGTKLEIKR
For B2, the binding entry in experiment [1] and in experiment [2] was “binds” each time.

B3: hu119-28 (antibody, human IgG1, kappa, V domains shown)
VH: EVQLVQSGAEVKKPGSSVKVSCKASGFTFSTYNMHWVKHAPGQGLEWIGAIYPGNGETSYNQKFKDRATLTVDKSTSTAYMELSSLRSEDTAVYYCAREDDYGEGYFDVWGQGTTVTVSS
VL: DIVLTQSPDSLAVSLGERATINCRASESVDSSGLSFMHWYQQKPGQPPKLLIYRASNLGSGVPDRFSGSGSGTDFTLTISSLQAEDVAVYYCQQINTDPLTFGQGTKLEIKR
For B3, the binding result in experiment [1] and in experiment [2] was “binds” in each case.

B4: hu119-29 (antibody, human IgG1, kappa, V domains shown)
VH: EVQLVQSGAEVKKPGSSVKVSCKASGFTFSTYNMHWVKHAPGQGLEWIGAIYPGNGETSYNQKFKDRATLTVDKSTSTAYMELSSLRSEDTAVYYCAREDDYGEGYFDVWGQGTTVTVSS
VL: DIVLTQSPDSLAVSLGERATINCRASESVDQSGLSFMHWYQQKPGQPPKLLIYRASNLGSGVPDRFSGSGSGTDFTLTISSLQAEDVAVYYCQQINTDPLTFGQGTKLEIKR
B4: the binding result in experiment [1] and in experiment [2] was “binds” in each case.

B5: hu119-13 (antibody, human IgG1, kappa, V domains shown)
VH: EVQLVQSGAEVKKPGSSVKVSCKASGFTFSTYNMHWVKHAPGQGLEWIGAIYPGNGETSYNQKFKDRATLTVDKSTSTAYMELSSLRSEDTAVYYCAREDDYGEGYFDVWGQGTTVTVSS
VL: EIVLTQSPATLSLSPGERATLSCRASESVDNSGLSFMHWYQQKPGQAPRLLIYRASNLGSGIPARFSGSGSGTDFTLTISSLEPEDFAVYYCQQINTDPLTFGQGTKLEIKR
As for B5, the binding entry in experiment [1] and in experiment [2] was “binds” throughout.
